Values from PubChem BioAssay AID1259425 (University of Nebraska Medical Center, 2018).
Test: 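Compare each knockdown with KSR1 silencing using changes in marker transcripts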 (primary screen). System: HCT116 human colon cancer cells. Knock-down reagent: siRNA pool against human genes, 50 nM siRNA. Detection: 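After 50 nM siRNA pool, branched-DNA assay measures six marker transcripts per well, minus blank, normalised to the geometric mean of two housekeeping transcripts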. Scale: BNIP3L mRNA: higher = more BNIP3L transcript after knockdown; NDRG1 mRNA: higher = more NDRG1 transcript after knockdown.
Here is an unselected part of about 14,000 reagents. Not all columns of the deposit are shown. The record does not give: the time to read-out.

{"gene symbol": "POLR2G (GeneID 5436)", "BNIP3L mRNA, set 1": 0.129, "NDRG1 mRNA, set 1": 0.8}
{"gene symbol": "SLC61A1 (GeneID 84975)", "BNIP3L mRNA, set 1": 0.183, "NDRG1 mRNA, set 1": 0.133}
{"gene symbol": "AR (GeneID 367)", "BNIP3L mRNA, set 1": 0.0991, "NDRG1 mRNA, set 1": 0.216}
{"gene symbol": "B3GNT5 (GeneID 84002)", "BNIP3L mRNA, set 1": 0.257, "NDRG1 mRNA, set 1": 0.336}
{"gene symbol": "MRPS33 (GeneID 51650)", "BNIP3L mRNA, set 1": 0.0466, "NDRG1 mRNA, set 1": 0.201}
{"gene symbol": "PROKR2 (GeneID 128674)", "BNIP3L mRNA, set 1": 0.403, "NDRG1 mRNA, set 1": 0.383}
{"gene symbol": "KLK13 (GeneID 26085)", "BNIP3L mRNA, set 1": 0.0727, "NDRG1 mRNA, set 1": 0.103}
{"gene symbol": "ZNF322 (GeneID 79692)", "BNIP3L mRNA, set 1": 0.389, "NDRG1 mRNA, set 1": 0.303}
{"gene symbol": "DES (GeneID 1674)", "BNIP3L mRNA, set 1": 0.137, "NDRG1 mRNA, set 1": 0.0835}
{"gene symbol": "LDAH (GeneID 60526)", "BNIP3L mRNA, set 1": 0.0721, "NDRG1 mRNA, set 1": 0.138}
{"gene symbol": "TBL1XR1 (GeneID 79718)", "BNIP3L mRNA, set 1": 0.263, "NDRG1 mRNA, set 1": 0.263}
{"gene symbol": "TJP1 (GeneID 7082)", "BNIP3L mRNA, set 1": 0.069, "NDRG1 mRNA, set 1": 0.235}
{"gene symbol": "IER5 (GeneID 51278)", "BNIP3L mRNA, set 1": 0.14, "NDRG1 mRNA, set 1": 0.0876}
{"gene symbol": "CHMP2B (GeneID 25978)", "BNIP3L mRNA, set 1": 0.147, "NDRG1 mRNA, set 1": 0.685}
{"gene symbol": "PROM1 (GeneID 8842)", "BNIP3L mRNA, set 1": 0.135, "NDRG1 mRNA, set 1": 0.336}
{"gene symbol": "OR13A1 (GeneID 79290)", "BNIP3L mRNA, set 1": 0.122, "NDRG1 mRNA, set 1": 0.131}
{"gene symbol": "CPNE5 (GeneID 57699)", "BNIP3L mRNA, set 1": 0.12, "NDRG1 mRNA, set 1": 0.0682}
{"gene symbol": "GALC (GeneID 2581)", "BNIP3L mRNA, set 1": 0.154, "NDRG1 mRNA, set 1": 0.0667}
{"gene symbol": "ZBTB14 (GeneID 7541)", "BNIP3L mRNA, set 1": 0.108, "NDRG1 mRNA, set 1": 0.0749}
{"gene symbol": "ADH1A (GeneID 124)", "BNIP3L mRNA, set 1": 0.0762, "NDRG1 mRNA, set 1": 0.163}
{"gene symbol": "GALNT5 (GeneID 11227)", "BNIP3L mRNA, set 1": 0.101, "NDRG1 mRNA, set 1": 0.131}
{"gene symbol": "TUBGCP3 (GeneID 10426)", "BNIP3L mRNA, set 1": 0.0871, "NDRG1 mRNA, set 1": 0.193}
{"gene symbol": "CELF3 (GeneID 11189)", "BNIP3L mRNA, set 1": 0.112, "NDRG1 mRNA, set 1": 1.45}
{"gene symbol": "RGS9 (GeneID 8787)", "BNIP3L mRNA, set 1": 0.105, "NDRG1 mRNA, set 1": 0.184}
{"gene symbol": "FGF18 (GeneID 8817)", "BNIP3L mRNA, set 1": 0.246, "NDRG1 mRNA, set 1": 0.257}
{"gene symbol": "ENC1 (GeneID 8507)", "BNIP3L mRNA, set 1": 0.216, "NDRG1 mRNA, set 1": 0.076}
{"gene symbol": "ACOT8 (GeneID 10005)", "BNIP3L mRNA, set 1": 0.229, "NDRG1 mRNA, set 1": 0.429}
{"gene symbol": "SUCLA2 (GeneID 8803)", "BNIP3L mRNA, set 1": 0.0555, "NDRG1 mRNA, set 1": 0.564}

Targets listed so far whose target name begins with T or t (3):
{"gene symbol": "TBL1XR1 (GeneID 79718)", "BNIP3L mRNA, set 1": 0.263, "NDRG1 mRNA, set 1": 0.263}
{"gene symbol": "TJP1 (GeneID 7082)", "BNIP3L mRNA, set 1": 0.069, "NDRG1 mRNA, set 1": 0.235}
{"gene symbol": "TUBGCP3 (GeneID 10426)", "BNIP3L mRNA, set 1": 0.0871, "NDRG1 mRNA, set 1": 0.193}
